Measured values taken from the supplement of paper PMC11006884.
Only a part is listed here, and it is no random draw.

Sequences of proteins named here, by UniProt entry; tags and fusion partners are left off. A change or cut given only in a name is not applied to a line headed by its entry.
UniProt Q15019: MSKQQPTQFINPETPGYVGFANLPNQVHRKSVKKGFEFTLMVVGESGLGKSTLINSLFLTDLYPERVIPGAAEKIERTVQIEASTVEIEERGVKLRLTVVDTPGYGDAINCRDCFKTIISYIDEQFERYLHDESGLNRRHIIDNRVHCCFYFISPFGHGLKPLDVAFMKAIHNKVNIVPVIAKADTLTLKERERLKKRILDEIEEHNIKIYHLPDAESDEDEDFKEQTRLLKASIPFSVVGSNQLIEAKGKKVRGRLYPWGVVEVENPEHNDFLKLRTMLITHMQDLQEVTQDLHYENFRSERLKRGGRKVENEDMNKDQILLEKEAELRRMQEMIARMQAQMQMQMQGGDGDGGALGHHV
UniProt Q13643: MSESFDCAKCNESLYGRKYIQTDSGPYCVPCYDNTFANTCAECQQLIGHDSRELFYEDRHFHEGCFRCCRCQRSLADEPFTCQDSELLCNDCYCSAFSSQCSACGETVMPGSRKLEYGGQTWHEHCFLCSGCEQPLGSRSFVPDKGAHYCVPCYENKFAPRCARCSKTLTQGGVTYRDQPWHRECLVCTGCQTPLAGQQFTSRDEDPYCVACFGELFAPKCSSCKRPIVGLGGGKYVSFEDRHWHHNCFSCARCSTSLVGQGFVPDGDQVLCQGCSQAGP
UniProt Q13596, whole entry: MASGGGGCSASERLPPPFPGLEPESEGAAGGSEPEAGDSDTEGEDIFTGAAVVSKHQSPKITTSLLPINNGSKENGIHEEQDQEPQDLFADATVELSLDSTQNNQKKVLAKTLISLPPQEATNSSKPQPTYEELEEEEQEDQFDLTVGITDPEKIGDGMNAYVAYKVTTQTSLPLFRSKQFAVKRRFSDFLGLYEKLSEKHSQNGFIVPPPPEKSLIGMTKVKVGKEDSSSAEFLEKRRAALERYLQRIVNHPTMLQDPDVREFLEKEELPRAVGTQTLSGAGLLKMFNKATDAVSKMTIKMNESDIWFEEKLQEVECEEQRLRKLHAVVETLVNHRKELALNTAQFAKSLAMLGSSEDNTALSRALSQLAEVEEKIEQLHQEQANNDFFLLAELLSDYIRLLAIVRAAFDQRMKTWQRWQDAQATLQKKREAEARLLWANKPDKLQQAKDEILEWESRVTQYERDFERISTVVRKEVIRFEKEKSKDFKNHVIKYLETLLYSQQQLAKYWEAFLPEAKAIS
UniProt Q13642: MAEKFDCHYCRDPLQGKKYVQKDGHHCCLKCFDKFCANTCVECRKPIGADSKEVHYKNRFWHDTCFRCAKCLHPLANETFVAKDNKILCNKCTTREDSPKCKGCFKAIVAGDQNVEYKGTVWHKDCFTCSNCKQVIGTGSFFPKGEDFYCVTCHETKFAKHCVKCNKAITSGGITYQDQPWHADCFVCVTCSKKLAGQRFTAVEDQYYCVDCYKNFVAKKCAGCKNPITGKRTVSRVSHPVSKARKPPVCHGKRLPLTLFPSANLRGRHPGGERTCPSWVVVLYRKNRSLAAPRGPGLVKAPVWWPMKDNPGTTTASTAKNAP
UniProt Q14974, whole entry, looked up: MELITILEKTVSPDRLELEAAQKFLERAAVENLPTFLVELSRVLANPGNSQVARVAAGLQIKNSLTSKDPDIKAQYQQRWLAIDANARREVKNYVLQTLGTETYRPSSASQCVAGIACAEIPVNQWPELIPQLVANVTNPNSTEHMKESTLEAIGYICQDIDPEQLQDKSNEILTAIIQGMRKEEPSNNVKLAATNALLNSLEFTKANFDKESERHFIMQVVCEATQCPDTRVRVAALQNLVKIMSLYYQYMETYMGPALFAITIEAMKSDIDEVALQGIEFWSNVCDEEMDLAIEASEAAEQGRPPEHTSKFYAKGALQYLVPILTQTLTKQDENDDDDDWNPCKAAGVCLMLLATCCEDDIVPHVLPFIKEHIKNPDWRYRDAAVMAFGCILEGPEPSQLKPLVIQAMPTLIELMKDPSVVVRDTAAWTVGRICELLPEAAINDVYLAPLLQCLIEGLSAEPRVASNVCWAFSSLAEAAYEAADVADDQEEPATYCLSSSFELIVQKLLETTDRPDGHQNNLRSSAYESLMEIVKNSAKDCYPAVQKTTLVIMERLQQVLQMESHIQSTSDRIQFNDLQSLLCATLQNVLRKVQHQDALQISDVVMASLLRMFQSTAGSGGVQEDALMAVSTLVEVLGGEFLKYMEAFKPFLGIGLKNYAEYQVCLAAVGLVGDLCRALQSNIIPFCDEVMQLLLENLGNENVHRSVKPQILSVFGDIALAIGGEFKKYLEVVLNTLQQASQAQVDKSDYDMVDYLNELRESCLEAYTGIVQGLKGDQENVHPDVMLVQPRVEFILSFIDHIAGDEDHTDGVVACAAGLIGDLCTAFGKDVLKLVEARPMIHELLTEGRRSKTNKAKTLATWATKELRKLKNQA
UniProt Q14684: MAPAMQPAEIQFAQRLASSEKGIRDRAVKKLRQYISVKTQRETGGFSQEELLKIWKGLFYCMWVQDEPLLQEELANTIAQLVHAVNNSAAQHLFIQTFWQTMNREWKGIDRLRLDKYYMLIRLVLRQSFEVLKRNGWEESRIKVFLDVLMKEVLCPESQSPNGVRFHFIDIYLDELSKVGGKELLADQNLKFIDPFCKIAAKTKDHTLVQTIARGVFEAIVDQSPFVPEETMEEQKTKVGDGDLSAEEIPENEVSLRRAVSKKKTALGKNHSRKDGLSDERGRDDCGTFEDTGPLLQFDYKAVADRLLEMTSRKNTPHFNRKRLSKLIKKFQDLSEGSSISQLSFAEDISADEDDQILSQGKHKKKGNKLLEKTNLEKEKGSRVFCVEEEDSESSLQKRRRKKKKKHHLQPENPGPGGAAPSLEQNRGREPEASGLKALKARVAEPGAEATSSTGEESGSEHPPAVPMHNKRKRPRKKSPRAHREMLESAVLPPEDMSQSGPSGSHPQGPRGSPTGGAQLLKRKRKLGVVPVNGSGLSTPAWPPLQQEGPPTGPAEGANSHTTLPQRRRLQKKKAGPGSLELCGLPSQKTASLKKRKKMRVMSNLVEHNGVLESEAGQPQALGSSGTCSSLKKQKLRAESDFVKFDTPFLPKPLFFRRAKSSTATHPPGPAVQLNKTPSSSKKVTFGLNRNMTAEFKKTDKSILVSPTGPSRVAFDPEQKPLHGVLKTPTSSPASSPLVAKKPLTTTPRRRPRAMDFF
UniProt Q14008: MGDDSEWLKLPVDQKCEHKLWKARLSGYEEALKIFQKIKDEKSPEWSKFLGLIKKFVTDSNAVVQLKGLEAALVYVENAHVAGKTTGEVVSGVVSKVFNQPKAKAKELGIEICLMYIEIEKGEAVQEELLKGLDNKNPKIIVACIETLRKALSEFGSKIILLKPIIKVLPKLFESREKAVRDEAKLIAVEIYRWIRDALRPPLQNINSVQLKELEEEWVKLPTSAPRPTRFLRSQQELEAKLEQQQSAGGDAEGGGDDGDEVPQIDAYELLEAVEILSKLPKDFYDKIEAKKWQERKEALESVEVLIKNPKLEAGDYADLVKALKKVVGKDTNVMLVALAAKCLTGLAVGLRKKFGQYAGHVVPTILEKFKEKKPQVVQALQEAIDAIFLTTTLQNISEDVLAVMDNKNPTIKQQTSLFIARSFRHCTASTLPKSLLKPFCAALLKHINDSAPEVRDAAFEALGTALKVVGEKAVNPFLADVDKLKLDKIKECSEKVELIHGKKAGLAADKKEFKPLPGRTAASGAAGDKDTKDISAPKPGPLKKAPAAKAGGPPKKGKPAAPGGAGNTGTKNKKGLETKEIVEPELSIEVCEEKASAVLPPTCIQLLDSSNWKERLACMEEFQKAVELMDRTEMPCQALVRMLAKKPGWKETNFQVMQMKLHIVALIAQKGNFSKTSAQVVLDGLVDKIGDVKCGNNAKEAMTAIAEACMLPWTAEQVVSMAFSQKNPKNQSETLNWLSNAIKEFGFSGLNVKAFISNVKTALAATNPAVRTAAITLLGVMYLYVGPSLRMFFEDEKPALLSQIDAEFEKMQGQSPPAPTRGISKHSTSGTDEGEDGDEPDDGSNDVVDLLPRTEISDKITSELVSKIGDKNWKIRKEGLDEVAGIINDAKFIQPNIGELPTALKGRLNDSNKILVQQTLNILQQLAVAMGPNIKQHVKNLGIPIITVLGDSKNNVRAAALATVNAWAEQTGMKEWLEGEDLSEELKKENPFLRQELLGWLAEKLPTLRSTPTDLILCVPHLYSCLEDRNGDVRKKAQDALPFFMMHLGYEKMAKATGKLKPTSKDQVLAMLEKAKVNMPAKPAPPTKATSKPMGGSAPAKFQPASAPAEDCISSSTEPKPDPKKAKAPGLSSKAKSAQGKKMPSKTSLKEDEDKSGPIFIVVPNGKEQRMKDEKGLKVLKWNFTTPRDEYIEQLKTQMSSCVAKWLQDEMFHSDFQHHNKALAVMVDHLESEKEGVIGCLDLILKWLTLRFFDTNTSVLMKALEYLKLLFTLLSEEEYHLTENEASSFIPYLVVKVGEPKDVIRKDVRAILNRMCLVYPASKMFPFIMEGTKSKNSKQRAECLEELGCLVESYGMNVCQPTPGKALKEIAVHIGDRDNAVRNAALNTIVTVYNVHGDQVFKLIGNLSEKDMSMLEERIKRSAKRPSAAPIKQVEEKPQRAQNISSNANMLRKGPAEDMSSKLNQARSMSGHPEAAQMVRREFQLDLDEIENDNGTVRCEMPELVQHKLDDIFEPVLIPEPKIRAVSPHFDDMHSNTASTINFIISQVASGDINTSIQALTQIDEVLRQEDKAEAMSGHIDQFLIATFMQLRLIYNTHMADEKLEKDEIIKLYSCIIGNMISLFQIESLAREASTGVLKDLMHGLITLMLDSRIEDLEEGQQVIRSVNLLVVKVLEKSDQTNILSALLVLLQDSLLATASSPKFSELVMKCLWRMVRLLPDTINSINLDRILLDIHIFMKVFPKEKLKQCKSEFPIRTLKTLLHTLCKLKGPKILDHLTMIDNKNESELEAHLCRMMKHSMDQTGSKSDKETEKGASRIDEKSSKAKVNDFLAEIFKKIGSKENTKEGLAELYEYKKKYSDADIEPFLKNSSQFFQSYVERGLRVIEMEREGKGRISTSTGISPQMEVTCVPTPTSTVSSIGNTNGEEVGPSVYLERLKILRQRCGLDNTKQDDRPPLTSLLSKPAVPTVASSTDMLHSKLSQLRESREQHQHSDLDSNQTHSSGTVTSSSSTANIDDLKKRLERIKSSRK
UniProt Q13509, whole entry, looked up: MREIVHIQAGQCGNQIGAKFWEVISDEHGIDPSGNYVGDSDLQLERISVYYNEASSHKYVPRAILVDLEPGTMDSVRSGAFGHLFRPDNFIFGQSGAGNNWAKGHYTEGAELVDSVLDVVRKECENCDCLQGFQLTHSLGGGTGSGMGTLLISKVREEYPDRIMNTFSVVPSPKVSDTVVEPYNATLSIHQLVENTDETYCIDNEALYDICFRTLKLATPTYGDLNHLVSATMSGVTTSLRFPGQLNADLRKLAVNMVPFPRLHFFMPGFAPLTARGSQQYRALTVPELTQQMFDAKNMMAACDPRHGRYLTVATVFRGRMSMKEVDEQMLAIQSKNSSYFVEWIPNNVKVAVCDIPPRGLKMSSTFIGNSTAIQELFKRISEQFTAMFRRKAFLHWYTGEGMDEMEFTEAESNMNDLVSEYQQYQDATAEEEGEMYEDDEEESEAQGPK
UniProt Q14151: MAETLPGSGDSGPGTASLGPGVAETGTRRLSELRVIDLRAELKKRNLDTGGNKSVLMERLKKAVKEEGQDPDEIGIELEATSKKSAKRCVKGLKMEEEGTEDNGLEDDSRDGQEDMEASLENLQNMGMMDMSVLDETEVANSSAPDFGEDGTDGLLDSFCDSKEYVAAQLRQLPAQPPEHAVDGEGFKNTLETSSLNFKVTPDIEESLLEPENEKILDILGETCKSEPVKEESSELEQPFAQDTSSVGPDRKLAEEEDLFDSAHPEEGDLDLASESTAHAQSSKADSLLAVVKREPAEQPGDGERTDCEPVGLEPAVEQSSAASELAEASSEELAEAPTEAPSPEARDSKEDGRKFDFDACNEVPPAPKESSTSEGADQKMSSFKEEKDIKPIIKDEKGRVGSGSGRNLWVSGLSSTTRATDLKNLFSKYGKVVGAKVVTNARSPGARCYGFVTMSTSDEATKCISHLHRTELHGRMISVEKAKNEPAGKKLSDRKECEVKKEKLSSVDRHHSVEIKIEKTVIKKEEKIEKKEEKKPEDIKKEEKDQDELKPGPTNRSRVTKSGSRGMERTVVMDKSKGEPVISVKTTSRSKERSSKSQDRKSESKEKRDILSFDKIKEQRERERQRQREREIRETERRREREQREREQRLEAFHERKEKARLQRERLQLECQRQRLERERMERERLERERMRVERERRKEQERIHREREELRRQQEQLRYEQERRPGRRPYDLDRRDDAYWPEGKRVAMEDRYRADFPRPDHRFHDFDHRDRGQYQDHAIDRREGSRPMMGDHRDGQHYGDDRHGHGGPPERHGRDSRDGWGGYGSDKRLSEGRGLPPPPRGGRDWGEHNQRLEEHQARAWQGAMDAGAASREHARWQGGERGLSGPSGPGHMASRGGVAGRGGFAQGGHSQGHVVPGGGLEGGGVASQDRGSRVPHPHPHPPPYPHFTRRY

compound: COC(=O)C#Cc1ccccc1 [methyl 3-phenylpropiolate]; assay: log2 ratio of iodoacetamide-alkyne labeling of the cysteine site, DMSO over compound (competition); higher = stronger covalent engagement of the cysteine by the compound, active = 1 or more; details: 500 µM; treatment time 1 h; system: HEK293T cell lysate
In short: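 Three replicates, each with duplicate channels, were prepared from HEK293T lysate (2 mg/mL) treated with vehicle or electrophile at 500 µM for 1 h at ambient temperature. Iodoacetamide alkyne was then applied for 1 h, and samples were clicked to sCIP-TMT reagents, pooled, trypsin-digested overnight at 37 °C, enriched on streptavidin, acid-eluted and analysed on Orbitrap Eclipse LC-MS/MS with FAIMS, with FragPipe quantification. The log2 competition ratio per cysteine is the mean control-channel divided by the mean compound-channel reporter intensity. Cysteines quantified in only one replicate were left out.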

log2 ratio of iodoacetamide-alkyne labeling, inactive:
DDX39B C300 (UniProt Q13838) -0.0333, UBE4A C989 (UniProt Q14139) 0.466, DCTN1 C791 (UniProt Q14203) 0.538, FLNC C1735 (UniProt Q14315) 0.192, MORC3 C619 (UniProt Q14149) 0.279, KANK1 C781 (UniProt Q14678) 0.231, SQSTM1 C26 (UniProt Q13501) 0.699, UniProt Q15019_C114 0.189, UniProt Q13620_C102 0.0449, FHL3 C150 (UniProt Q13643) 0.146, CAMK2G C273 (UniProt Q13555) 0.506, SART3 C670 (UniProt Q15020) 0.486, SNX1 C318 (UniProt Q13596) 0.262, BOP1 C373 (UniProt Q14137) 0.0315, CBX2 C340 (UniProt Q14781) 0.654, NCAPH C239 (UniProt Q15003) 0.37, SQSTM1 C289 (UniProt Q13501) 0.896, FHL1 C71 (UniProt Q13642) 0.0627, FHL1 C7 (UniProt Q13642) -0.0623, FHL3 C7 (UniProt Q13643) 0.165, CHD4 C1468 (UniProt Q14839) 0.211, NCAPD2 C772 (UniProt Q15021) -0.0709, USP10 C209 (UniProt Q14694) -0.157, DYNC1H1 C1999 (UniProt Q14204) 0.449, FLNC C1109 (UniProt Q14315) 0.096, FHL1 C153 (UniProt Q13642) 0.177, KPNB1 C585 (UniProt Q14974) 0.0601, RRP1B C197 (UniProt Q14684) -0.00154, SPTAN1 C2233 (UniProt Q13813) 0.333, DYNC1H1 C3089 (UniProt Q14204) 0.487, CKAP5 C1113 (UniProt Q14008) 0.0583, TUBB3 C303 (UniProt Q13509) 0.517, DRAP1 C73 (UniProt Q14919) -0.0364, TTLL12 C361 (UniProt Q14166) -0.307, UBE4A C79 (UniProt Q14139) 0.178, RRP1B C583 (UniProt Q14684) 0.481, SAFB2 C672 (UniProt Q14151) 0.803
